{"source": "the supplement of paper PMC8728848", "binders": {"B1": {"name": "SP15308F-bth-333-19-333 (Bacteroides thetaiotaomicron) (protein)", "chain": "SCNNEWESEQYVQMVSFKAPVNAQGVTPIYIRYKPEGKVTYQLPLIVSGSTMNSKDLNVHVGLDLDTLDVLNVEHFGSRKELFFKPLENKYYEFPETVQIPAGECTSLLPIDFALKDLDQVDKWVLPLAIQSNDPSHNYQANPRKFYRRAMLRISPFNDYSGQYSATAYKVYFKGNEKEAIVPEYHTSYVIDDKTIFFYAGLIDIDRLDRKYYKIKFEFTEEKIDLQTRKLKISSDNEDINLVVKGQPSYTVEEEMDATRPYLKHIYVTINNLEYEFTDYTSVPGYPLEYVVKGSLTMERKINTQIPDEDQAIEW"}}, "experiment_in_all_cases": "glycan array binding signal (z-score within array); higher = stronger binding", "settings_in_all_cases": "glycan notation: IUPAC condensed, linker removed", "key": {"[1]": {"target": "GalNAc3S(b1-4)[Fuc(a1-3)]GlcNAc", "method_in_brief": "(§1)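 Glycan array data were curated from 3228 arrays in the Consortium for Functional Glycomics database and kept only where the protein sequence was available. Glycan names were converted to IUPAC-condensed notation, and columns mapping to the same glycan were averaged. The binding signal is a within-array Z-score, averaged across arrays of the same protein sequence at different concentrations or buffers and across linkers. Negative Z-scores can be read as non-binding.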"}, "GalNAc4S6S(b1-4)GlcNAc": {"target": "GalNAc4S6S(b1-4)GlcNAc", "method_in_brief": "as §1"}, "GalNAc6S(b1-4)GlcNAc": {"target": "GalNAc6S(b1-4)GlcNAc", "method_in_brief": "as §1"}, "Glc(a1-4)Glc": {"target": "Glc(a1-4)Glc", "method_in_brief": "as §1"}, "[2]": {"target": "Glc(a1-4)Glc(a1-4)Glc(a1-4)Glc", "method_in_brief": "as §1"}, "Glc(a1-6)Glc(a1-6)Glc": {"target": "Glc(a1-6)Glc(a1-6)Glc", "method_in_brief": "as §1"}, "[3]": {"target": "Glc(a1-6)Glc(a1-6)Glc(a1-6)Glc", "method_in_brief": "as §1"}, "Glc(b1-4)Glc": {"target": "Glc(b1-4)Glc", "method_in_brief": "as §1"}, "Glc(b1-6)Glc": {"target": "Glc(b1-6)Glc", "method_in_brief": "as §1"}, "GlcA(b1-3)Gal": {"target": "GlcA(b1-3)Gal", "method_in_brief": "as §1"}, "GlcA(b1-3)GlcNAc": {"target": "GlcA(b1-3)GlcNAc", "method_in_brief": "as §1"}, "GlcA(b1-6)Gal": {"target": "GlcA(b1-6)Gal", "method_in_brief": "as §1"}, "[4]": {"target": "GlcA3S(b1-3)Gal(b1-4)GlcNAc(b1-2)Man", "method_in_brief": "as §1"}, "[5]": {"target": "GlcA3S(b1-3)Gal(b1-4)GlcNAc(b1-3)Gal(b1-4)Glc", "method_in_brief": "as §1"}, "[6]": {"target": "GlcNAc(a1-3)Gal(b1-4)GlcNAc", "method_in_brief": "as §1"}, "[7]": {"target": "GlcNAc(a1-4)Gal(b1-3)GlcNAc", "method_in_brief": "as §1"}, "[8]": {"target": "GlcNAc(a1-4)Gal(b1-4)GalNAc", "method_in_brief": "as §1"}, "[9]": {"target": "GlcNAc(a1-4)Gal(b1-4)GlcNAc", "method_in_brief": "as §1"}, "[10]": {"target": "GlcNAc(a1-4)Gal(b1-4)GlcNAc(b1-3)Gal(b1-4)Glc", "method_in_brief": "as §1"}, "[11]": {"target": "GlcNAc(a1-4)Gal(b1-4)GlcNAc(b1-3)Gal(b1-4)GlcNAc", "method_in_brief": "as §1"}, "[12]": {"target": "GlcNAc(a1-4)Gal(b1-4)GlcNAc(b1-3)Gal(b1-4)GlcNAc(b1-3)Gal(b1-4)GlcNAc", "method_in_brief": "as §1"}, "[13]": {"target": "GlcNAc(a1-4)Gal(b1-4)GlcNAc(b1-3)Gal(b1-4)[Fuc(a1-3)]GlcNAc(b1-3)Gal(b1-4)[Fuc(a1-3)]GlcNAc", "method_in_brief": "as §1"}, "[14]": {"target": "GlcNAc(a1-6)Gal(b1-4)GlcNAc", "method_in_brief": "as §1"}, "[15]": {"target": "GlcNAc(b1-2)Gal(b1-3)GalNAc", "method_in_brief": "as §1"}, "[16]": {"target": "GlcNAc(b1-2)Man(a1-3)[GlcNAc(b1-2)Man(a1-6)]Man(b1-4)GlcNAc(b1-4)GlcNAc", "method_in_brief": "as §1"}, "[17]": {"target": "GlcNAc(b1-2)Man(a1-3)[GlcNAc(b1-2)Man(a1-6)]Man(b1-4)GlcNAc(b1-4)[Fuc(a1-6)]GlcNAc", "method_in_brief": "as §1"}, "[18]": {"target": "GlcNAc(b1-2)Man(a1-3)[GlcNAc(b1-4)][GlcNAc(b1-2)Man(a1-6)]Man(b1-4)GlcNAc(b1-4)GlcNAc", "method_in_brief": "as §1"}, "[19]": {"target": "GlcNAc(b1-2)Man(a1-3)[GlcNAc(b1-4)][GlcNAc(b1-2)Man(a1-6)]Man(b1-4)GlcNAc(b1-4)[Fuc(a1-6)]GlcNAc", "method_in_brief": "as §1"}, "[20]": {"target": "GlcNAc(b1-2)[GlcNAc(b1-4)]Man(a1-3)[GlcNAc(b1-2)Man(a1-6)]Man(b1-4)GlcNAc(b1-4)GlcNAc", "method_in_brief": "as §1"}, "[21]": {"target": "GlcNAc(b1-2)[GlcNAc(b1-4)]Man(a1-3)[GlcNAc(b1-4)][GlcNAc(b1-2)Man(a1-6)]Man(b1-4)GlcNAc(b1-4)GlcNAc", "method_in_brief": "as §1"}, "[22]": {"target": "GlcNAc(b1-2)[GlcNAc(b1-4)]Man(a1-3)[GlcNAc(b1-4)][GlcNAc(b1-2)[GlcNAc(b1-6)]Man(a1-6)]Man(b1-4)GlcNAc(b1-4)GlcNAc", "method_in_brief": "as §1"}, "[23]": {"target": "GlcNAc(b1-2)[GlcNAc(b1-4)]Man(a1-3)[GlcNAc(b1-4)][GlcNAc(b1-2)[GlcNAc(b1-6)]Man(a1-6)]Man(b1-4)GlcNAc(b1-4)[Fuc(a1-6)]GlcNAc", "method_in_brief": "as §1"}, "[24]": {"target": "GlcNAc(b1-2)[GlcNAc(b1-6)]Man(a1-6)[GlcNAc(b1-2)Man(a1-3)]Man(b1-4)GlcNAc(b1-4)GlcNAc", "method_in_brief": "as §1"}, "[25]": {"target": "GlcNAc(b1-2)[GlcNAc(b1-6)]Man(a1-6)[GlcNAc(b1-2)Man(a1-3)]Man(b1-4)GlcNAc(b1-4)[Fuc(a1-6)]GlcNAc", "method_in_brief": "as §1"}, "[26]": {"target": "GlcNAc(b1-2)[GlcNAc(b1-6)]Man(a1-6)[GlcNAc(b1-4)][GlcNAc(b1-2)Man(a1-3)]Man(b1-4)GlcNAc(b1-4)GlcNAc", "method_in_brief": "as §1"}, "GlcNAc(b1-3)Fuc": {"target": "GlcNAc(b1-3)Fuc", "method_in_brief": "as §1"}, "GlcNAc(b1-3)Gal": {"target": "GlcNAc(b1-3)Gal", "method_in_brief": "as §1"}, "[27]": {"target": "GlcNAc(b1-3)Gal(b1-3)GalNAc", "method_in_brief": "as §1"}}, "note": "This is one part of the list."}
{"binder": "B1", "values": [{"measurement": "glycan array binding signal (z-score)", "setting": "[1]", "value": 0.658}, {"measurement": "glycan array binding signal (z-score)", "setting": "GalNAc4S6S(b1-4)GlcNAc", "value": -0.21}, {"measurement": "glycan array binding signal (z-score)", "setting": "GalNAc6S(b1-4)GlcNAc", "value": -0.968}, {"measurement": "glycan array binding signal (z-score)", "setting": "Glc(a1-4)Glc", "value": 0.705}, {"measurement": "glycan array binding signal (z-score)", "setting": "[2]", "value": 1.48}, {"measurement": "glycan array binding signal (z-score)", "setting": "Glc(a1-6)Glc(a1-6)Glc", "value": -0.395}, {"measurement": "glycan array binding signal (z-score)", "setting": "[3]", "value": -0.539}, {"measurement": "glycan array binding signal (z-score)", "setting": "Glc(b1-4)Glc", "value": -0.398}, {"measurement": "glycan array binding signal (z-score)", "setting": "Glc(b1-6)Glc", "value": -0.229}, {"measurement": "glycan array binding signal (z-score)", "setting": "GlcA(b1-3)Gal", "value": -0.59}, {"measurement": "glycan array binding signal (z-score)", "setting": "GlcA(b1-3)GlcNAc", "value": -0.997}, {"measurement": "glycan array binding signal (z-score)", "setting": "GlcA(b1-6)Gal", "value": 0.698}, {"measurement": "glycan array binding signal (z-score)", "setting": "[4]", "value": 2.11}, {"measurement": "glycan array binding signal (z-score)", "setting": "[5]", "value": -0.33}, {"measurement": "glycan array binding signal (z-score)", "setting": "[6]", "value": -0.271}, {"measurement": "glycan array binding signal (z-score)", "setting": "[7]", "value": -0.269}, {"measurement": "glycan array binding signal (z-score)", "setting": "[8]", "value": -0.499}, {"measurement": "glycan array binding signal (z-score)", "setting": "[9]", "value": -0.026}, {"measurement": "glycan array binding signal (z-score)", "setting": "[10]", "value": -0.585}, {"measurement": "glycan array binding signal (z-score)", "setting": "[11]", "value": -1.29}, {"measurement": "glycan array binding signal (z-score)", "setting": "[12]", "value": 2.03}, {"measurement": "glycan array binding signal (z-score)", "setting": "[13]", "value": 2.63}, {"measurement": "glycan array binding signal (z-score)", "setting": "[14]", "value": 0.218}, {"measurement": "glycan array binding signal (z-score)", "setting": "[15]", "value": -0.835}, {"measurement": "glycan array binding signal (z-score)", "setting": "[16]", "value": -0.298}, {"measurement": "glycan array binding signal (z-score)", "setting": "[17]", "value": 0.59}, {"measurement": "glycan array binding signal (z-score)", "setting": "[18]", "value": -0.591}, {"measurement": "glycan array binding signal (z-score)", "setting": "[19]", "value": -0.288}, {"measurement": "glycan array binding signal (z-score)", "setting": "[20]", "value": 0.866}, {"measurement": "glycan array binding signal (z-score)", "setting": "[21]", "value": -1.44}, {"measurement": "glycan array binding signal (z-score)", "setting": "[22]", "value": -1.46}, {"measurement": "glycan array binding signal (z-score)", "setting": "[23]", "value": -0.642}, {"measurement": "glycan array binding signal (z-score)", "setting": "[24]", "value": -0.327}, {"measurement": "glycan array binding signal (z-score)", "setting": "[25]", "value": -0.049}, {"measurement": "glycan array binding signal (z-score)", "setting": "[26]", "value": -1.18}, {"measurement": "glycan array binding signal (z-score)", "setting": "GlcNAc(b1-3)Fuc", "value": -1.48}, {"measurement": "glycan array binding signal (z-score)", "setting": "GlcNAc(b1-3)Gal", "value": 0.015}, {"measurement": "glycan array binding signal (z-score)", "setting": "[27]", "value": 0.458}]}
